# From paper PMC8213057, “Targeting ALK2: An Open Science Approach to Developing Therapeutics for the Treatment of Diffuse Intrinsic Pontine Glioma” (Journal of Medicinal Chemistry, 2020)
# Amino acid sequences for entries named in this document (tags omitted). A change or cut given only in a name is not applied to a line headed by its entry. Residues count along the entry.
# UniProt P42685: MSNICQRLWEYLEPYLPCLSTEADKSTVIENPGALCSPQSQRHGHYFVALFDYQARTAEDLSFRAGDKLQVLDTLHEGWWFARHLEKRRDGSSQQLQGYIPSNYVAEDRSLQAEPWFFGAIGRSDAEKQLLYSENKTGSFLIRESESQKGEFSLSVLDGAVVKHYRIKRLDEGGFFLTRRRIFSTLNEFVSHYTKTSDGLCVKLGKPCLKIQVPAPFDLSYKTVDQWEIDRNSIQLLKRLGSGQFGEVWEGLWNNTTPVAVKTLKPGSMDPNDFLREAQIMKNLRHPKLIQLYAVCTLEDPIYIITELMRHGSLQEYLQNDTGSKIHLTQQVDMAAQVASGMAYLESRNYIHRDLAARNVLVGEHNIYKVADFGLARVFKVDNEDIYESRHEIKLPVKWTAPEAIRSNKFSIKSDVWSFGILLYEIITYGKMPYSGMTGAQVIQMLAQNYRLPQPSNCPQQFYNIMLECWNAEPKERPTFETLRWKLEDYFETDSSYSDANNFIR
# UniProt O96017, whole entry: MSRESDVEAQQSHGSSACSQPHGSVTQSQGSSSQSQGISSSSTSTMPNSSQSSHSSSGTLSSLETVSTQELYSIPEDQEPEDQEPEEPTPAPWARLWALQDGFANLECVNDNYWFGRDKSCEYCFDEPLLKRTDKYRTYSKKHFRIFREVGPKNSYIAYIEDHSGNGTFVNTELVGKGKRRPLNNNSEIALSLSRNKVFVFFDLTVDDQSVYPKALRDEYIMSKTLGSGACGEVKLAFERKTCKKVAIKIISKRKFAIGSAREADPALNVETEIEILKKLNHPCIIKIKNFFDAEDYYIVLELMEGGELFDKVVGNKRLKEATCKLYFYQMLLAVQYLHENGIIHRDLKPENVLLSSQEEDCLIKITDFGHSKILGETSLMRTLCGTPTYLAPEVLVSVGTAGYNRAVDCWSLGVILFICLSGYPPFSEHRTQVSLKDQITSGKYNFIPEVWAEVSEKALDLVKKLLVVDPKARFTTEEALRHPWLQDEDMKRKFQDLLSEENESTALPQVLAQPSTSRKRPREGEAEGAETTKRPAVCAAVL
# UniProt Q76MJ5, 35-926: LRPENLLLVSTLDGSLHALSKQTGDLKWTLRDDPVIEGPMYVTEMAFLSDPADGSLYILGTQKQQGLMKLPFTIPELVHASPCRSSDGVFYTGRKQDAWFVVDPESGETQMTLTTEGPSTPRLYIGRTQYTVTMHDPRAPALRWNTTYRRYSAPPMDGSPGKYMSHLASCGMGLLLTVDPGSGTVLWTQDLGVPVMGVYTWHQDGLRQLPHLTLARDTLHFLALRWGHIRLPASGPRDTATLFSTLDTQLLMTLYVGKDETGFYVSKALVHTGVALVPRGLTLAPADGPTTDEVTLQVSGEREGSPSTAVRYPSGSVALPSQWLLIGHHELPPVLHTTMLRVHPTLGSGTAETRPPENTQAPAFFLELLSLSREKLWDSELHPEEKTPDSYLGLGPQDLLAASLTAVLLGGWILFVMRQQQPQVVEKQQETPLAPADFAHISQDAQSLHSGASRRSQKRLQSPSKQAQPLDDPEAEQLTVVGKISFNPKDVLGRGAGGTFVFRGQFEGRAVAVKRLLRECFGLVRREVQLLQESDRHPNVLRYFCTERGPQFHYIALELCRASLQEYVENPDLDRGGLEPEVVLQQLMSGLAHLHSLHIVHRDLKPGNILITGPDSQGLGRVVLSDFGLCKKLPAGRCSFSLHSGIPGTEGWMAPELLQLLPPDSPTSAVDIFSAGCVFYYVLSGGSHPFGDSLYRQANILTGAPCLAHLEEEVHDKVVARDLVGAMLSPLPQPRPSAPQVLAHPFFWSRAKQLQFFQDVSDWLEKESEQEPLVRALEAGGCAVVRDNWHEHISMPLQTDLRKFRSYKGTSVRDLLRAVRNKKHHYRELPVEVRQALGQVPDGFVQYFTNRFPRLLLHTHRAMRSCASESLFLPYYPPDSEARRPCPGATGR
# UniProt P49840: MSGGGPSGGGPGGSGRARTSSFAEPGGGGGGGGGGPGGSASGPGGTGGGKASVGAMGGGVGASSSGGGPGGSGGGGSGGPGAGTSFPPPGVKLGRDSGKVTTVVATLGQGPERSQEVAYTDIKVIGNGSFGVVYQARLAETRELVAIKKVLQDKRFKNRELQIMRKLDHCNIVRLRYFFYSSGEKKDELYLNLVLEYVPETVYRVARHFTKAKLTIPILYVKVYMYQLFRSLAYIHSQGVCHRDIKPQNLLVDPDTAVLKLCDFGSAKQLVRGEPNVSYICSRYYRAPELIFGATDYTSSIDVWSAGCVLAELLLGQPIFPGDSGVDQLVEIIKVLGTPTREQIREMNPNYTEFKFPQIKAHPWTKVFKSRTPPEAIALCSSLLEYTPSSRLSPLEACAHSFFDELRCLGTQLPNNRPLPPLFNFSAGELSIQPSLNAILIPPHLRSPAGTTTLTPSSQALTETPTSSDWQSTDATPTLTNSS
# UniProt P29322, 28-1005: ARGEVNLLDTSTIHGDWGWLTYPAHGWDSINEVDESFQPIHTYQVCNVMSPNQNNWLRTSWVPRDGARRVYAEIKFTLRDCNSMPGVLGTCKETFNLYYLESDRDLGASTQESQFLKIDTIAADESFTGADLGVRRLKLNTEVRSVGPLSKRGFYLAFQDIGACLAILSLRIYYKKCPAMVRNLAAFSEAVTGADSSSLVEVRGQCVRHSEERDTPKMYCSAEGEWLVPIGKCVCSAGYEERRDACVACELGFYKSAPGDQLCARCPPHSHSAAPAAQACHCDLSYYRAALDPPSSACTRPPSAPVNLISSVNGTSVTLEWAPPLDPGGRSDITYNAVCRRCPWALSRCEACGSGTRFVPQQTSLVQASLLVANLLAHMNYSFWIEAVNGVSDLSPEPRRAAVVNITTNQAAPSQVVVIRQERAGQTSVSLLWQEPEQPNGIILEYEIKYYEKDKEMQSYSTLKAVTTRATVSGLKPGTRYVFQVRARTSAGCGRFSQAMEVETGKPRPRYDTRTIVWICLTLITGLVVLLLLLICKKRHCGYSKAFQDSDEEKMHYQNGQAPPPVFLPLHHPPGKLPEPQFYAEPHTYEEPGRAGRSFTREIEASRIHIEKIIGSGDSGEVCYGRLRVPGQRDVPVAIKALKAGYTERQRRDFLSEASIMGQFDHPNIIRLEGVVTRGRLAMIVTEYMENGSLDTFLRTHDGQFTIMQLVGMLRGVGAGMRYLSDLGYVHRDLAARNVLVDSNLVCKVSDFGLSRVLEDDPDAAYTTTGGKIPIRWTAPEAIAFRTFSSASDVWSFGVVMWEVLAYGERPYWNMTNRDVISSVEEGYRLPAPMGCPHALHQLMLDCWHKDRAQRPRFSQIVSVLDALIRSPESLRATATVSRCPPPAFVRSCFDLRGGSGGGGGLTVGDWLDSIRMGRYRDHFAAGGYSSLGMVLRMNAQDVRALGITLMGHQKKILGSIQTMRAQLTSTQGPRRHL
# UniProt P54760, 16-987: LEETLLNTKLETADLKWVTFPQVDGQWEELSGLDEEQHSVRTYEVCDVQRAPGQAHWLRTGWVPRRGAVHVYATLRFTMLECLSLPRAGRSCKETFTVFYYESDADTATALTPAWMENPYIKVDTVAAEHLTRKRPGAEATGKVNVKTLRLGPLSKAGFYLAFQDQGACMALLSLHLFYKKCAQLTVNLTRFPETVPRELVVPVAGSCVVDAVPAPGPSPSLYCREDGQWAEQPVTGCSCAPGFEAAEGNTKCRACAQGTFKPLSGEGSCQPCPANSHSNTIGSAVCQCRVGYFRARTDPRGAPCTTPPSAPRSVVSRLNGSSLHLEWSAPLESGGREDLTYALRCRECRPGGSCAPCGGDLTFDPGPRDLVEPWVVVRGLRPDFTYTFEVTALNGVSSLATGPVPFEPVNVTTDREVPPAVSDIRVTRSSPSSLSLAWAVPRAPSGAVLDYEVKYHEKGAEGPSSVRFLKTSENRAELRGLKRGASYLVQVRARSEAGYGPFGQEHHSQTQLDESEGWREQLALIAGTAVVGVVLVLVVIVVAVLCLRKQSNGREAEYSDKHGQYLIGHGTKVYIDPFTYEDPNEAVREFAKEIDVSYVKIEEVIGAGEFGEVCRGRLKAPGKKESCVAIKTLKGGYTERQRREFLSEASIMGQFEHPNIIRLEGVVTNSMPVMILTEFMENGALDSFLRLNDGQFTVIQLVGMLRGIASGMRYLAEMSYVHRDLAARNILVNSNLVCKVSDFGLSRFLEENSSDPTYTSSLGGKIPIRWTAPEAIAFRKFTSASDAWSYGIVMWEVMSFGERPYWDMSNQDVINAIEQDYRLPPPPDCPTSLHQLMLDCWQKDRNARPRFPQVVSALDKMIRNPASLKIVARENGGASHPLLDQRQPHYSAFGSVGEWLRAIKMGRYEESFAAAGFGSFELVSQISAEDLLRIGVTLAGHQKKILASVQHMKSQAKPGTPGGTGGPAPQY
# UniProt P57059: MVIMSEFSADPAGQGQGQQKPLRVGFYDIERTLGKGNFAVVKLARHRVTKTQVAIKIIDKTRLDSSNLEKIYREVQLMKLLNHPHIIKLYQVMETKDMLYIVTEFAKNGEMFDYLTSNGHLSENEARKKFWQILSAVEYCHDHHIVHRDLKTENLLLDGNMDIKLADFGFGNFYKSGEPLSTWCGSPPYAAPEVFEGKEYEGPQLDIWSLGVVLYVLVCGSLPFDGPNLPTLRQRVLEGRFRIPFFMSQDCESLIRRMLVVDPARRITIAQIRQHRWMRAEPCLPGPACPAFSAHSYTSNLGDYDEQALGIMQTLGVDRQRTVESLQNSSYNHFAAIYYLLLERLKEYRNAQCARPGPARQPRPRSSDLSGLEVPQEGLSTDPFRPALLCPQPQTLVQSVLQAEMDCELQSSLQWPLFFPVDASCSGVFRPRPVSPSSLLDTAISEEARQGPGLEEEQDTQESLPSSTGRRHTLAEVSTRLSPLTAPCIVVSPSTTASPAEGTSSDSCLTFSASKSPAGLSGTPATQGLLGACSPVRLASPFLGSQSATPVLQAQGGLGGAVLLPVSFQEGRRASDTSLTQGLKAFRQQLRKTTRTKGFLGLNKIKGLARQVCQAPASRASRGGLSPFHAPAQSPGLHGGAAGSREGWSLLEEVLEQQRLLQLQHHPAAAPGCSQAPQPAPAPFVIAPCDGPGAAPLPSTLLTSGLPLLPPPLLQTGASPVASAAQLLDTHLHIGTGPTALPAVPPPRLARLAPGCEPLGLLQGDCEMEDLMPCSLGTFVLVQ
# UniProt Q16539, whole entry: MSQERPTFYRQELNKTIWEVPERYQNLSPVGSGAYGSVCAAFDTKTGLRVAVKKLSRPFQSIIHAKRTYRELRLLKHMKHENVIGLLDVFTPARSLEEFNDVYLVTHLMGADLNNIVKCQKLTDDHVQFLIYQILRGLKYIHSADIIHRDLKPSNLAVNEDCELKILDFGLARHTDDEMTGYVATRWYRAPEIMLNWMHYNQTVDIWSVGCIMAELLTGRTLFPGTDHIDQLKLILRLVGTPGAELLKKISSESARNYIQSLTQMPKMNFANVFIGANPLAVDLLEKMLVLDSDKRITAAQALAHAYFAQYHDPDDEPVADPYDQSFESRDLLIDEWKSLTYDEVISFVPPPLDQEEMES
# UniProt Q9Y572: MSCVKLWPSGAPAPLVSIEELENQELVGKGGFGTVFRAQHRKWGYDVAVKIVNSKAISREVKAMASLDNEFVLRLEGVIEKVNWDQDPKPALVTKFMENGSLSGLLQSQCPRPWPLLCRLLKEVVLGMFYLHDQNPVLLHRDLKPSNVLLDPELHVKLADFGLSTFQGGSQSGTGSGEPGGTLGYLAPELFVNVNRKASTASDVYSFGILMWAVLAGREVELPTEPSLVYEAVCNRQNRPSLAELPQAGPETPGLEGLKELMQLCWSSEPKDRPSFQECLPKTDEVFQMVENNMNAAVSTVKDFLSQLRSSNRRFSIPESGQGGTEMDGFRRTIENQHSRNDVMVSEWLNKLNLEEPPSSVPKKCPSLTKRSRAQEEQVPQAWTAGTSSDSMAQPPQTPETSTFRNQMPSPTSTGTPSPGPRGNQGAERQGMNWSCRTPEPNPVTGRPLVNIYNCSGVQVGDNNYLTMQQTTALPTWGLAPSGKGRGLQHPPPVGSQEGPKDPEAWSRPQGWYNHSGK
# UniProt Q99640: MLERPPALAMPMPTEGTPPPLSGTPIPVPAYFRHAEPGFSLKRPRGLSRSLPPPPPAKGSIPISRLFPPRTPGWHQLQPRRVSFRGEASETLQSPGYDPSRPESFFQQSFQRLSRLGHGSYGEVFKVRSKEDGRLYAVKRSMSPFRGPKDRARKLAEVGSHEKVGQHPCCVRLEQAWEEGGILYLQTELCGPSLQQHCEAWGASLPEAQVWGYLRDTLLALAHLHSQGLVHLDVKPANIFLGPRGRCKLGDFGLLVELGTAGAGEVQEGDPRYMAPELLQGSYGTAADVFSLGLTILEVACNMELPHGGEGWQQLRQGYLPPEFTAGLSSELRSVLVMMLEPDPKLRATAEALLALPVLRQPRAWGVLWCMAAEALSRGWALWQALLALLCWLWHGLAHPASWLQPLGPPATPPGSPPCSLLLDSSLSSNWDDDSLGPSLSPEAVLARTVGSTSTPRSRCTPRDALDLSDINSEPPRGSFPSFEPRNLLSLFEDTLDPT
# What was measured:
# LCK = LCK (Homo sapiens, UniProt P06239); settings: 1 μM; Run 1, Run 2
# JAK2 = JAK2 (Homo sapiens, UniProt O60674); assay: biochemical; settings: read-out: % enzyme activity, 1 μM; Run 1, Run 2
# PKCg = PKCg (Homo sapiens, UniProt P05129); settings: 1 μM; Run 1, Run 2
# DCAMKL2 = DCAMKL2 (Homo sapiens, UniProt Q8N568); settings: 1 μM; Run 1, Run 2
# TYK2 = TYK2 (Homo sapiens, UniProt P29597); settings: 1 μM; Run 1, Run 2
# FRK/PTK5 [1] = target: T1, FRK/PTK5 (Homo sapiens, UniProt P42685); settings: 1 μM; Run 1, Run 2
# ERN1/IRE1 = ERN1/IRE1 (Homo sapiens, UniProt O75460); settings: 1 μM; Run 1, Run 2
# IGF1R = IGF1R (Homo sapiens, UniProt P08069); assay: biochemical; settings: read-out: % enzyme activity, 1 μM; Run 1, Run 2
# CHK2 = CHK2 (Homo sapiens, UniProt O96017); settings: 1 μM; Run 1, Run 2
# PKCmu/PRKD1 = PKCmu/PRKD1 (Homo sapiens, UniProt Q15139); settings: 1 μM; Run 1, Run 2
# P38d/MAPK13 = P38d/MAPK13 (Homo sapiens, UniProt O15264); assay: biochemical; settings: read-out: % enzyme activity, 1 μM; Run 1, Run 2
# CDK2/Cyclin A1 = CDK2/Cyclin A1 (Homo sapiens, UniProt P24941); assay: biochemical; settings: read-out: % enzyme activity, 1 μM; Run 1, Run 2
# NEK5 = NEK5 (Homo sapiens, UniProt Q6P3R8); settings: 1 μM; Run 1, Run 2
# ERN2/IRE2 = ERN2/IRE2 (Homo sapiens, UniProt Q76MJ5); assay: biochemical; settings: read-out: % enzyme activity, 1 μM; Run 1, Run 2
# GCK/MAP4K2 [2] = target: T2, GCK/MAP4K2 (Homo sapiens, UniProt Q12851); assay: biochemical; settings: read-out: % enzyme activity, 1 μM; Run 1, Run 2
# GSK3a = GSK3a (Homo sapiens, UniProt P49840); settings: 1 μM; Run 1, Run 2
# CDK1/cyclin A = CDK1/cyclin A (Homo sapiens, UniProt P06493); assay: biochemical; settings: read-out: % enzyme activity, 1 μM; Run 1, Run 2
# PKG1b = PKG1b (Homo sapiens, UniProt Q13976); settings: 1 μM; Run 1, Run 2
# CDK1/cyclin E = CDK1/cyclin E (Homo sapiens, UniProt P06493); assay: biochemical; settings: read-out: % enzyme activity, 1 μM; Run 1, Run 2
# FRK/PTK5 [3] = target: T1, FRK/PTK5; assay: biochemical; settings: read-out: % enzyme activity, 1 μM; Run 1, Run 2
# EPHA8 = EPHA8 (Homo sapiens, UniProt P29322); assay: biochemical; settings: read-out: % enzyme activity, 1 μM; Run 1, Run 2
# EPHB4 = EPHB4 (Homo sapiens, UniProt P54760); assay: biochemical; settings: read-out: % enzyme activity, 1 μM; Run 1, Run 2
# SIK1 = SIK1 (Homo sapiens, UniProt P57059); assay: biochemical; settings: read-out: % enzyme activity, 1 μM; Run 1, Run 2
# MEK1 = MEK1 (Homo sapiens, UniProt Q02750); settings: 1 μM; Run 1, Run 2
# NEK3 = NEK3 (Homo sapiens, UniProt P51956); settings: 1 μM; Run 1, Run 2
# P38a/MAPK14 = P38a/MAPK14 (Homo sapiens, UniProt Q16539); settings: 1 μM; Run 1, Run 2
# EPHB2 = EPHB2 (Homo sapiens, UniProt P29323); assay: biochemical; settings: read-out: % enzyme activity, 1 μM; Run 1, Run 2
# DAPK2 [4] = target: T3, DAPK2 (Homo sapiens, UniProt Q9UIK4); settings: 1 μM; Run 1, Run 2
# GCK/MAP4K2 [5] = target: T2, GCK/MAP4K2; settings: 1 μM; Run 1, Run 2
# KDR/VEGFR2 = KDR/VEGFR2 (Homo sapiens, UniProt P35968); settings: 1 μM; Run 1, Run 2
# PKCtheta = PKCtheta (Homo sapiens, UniProt Q04759); assay: biochemical; settings: read-out: % enzyme activity, 1 μM; Run 1, Run 2
# TRKB = TRKB (Homo sapiens, UniProt Q16620); settings: 1 μM; Run 1, Run 2
# STK33 = STK33 (Homo sapiens, UniProt Q9BYT3); assay: biochemical; settings: read-out: % enzyme activity, 1 μM; Run 1, Run 2
# RIPK3 = RIPK3 (Homo sapiens, UniProt Q9Y572); assay: biochemical; settings: read-out: % enzyme activity, 1 μM; Run 1, Run 2
# MARK3 = MARK3 (Homo sapiens, UniProt P27448); assay: biochemical; settings: read-out: % enzyme activity, 1 μM; Run 1, Run 2
# DAPK2 [6] = target: T3, DAPK2; assay: biochemical; settings: read-out: % enzyme activity, 1 μM; Run 1, Run 2
# PKMYT1 = PKMYT1 (Homo sapiens, UniProt Q99640); assay: biochemical; settings: read-out: % enzyme activity, 1 μM; Run 1, Run 2
# MSK2/RPS6KA4 = MSK2/RPS6KA4 (Homo sapiens, UniProt O75676); settings: 1 μM; Run 1, Run 2
# FGR = FGR (Homo sapiens, UniProt P09769); assay: biochemical; settings: read-out: % enzyme activity, 1 μM; Run 1, Run 2
# MLCK2/MYLK2 = MLCK2/MYLK2 (Homo sapiens, UniProt Q9H1R3); assay: biochemical; settings: read-out: % enzyme activity, 1 μM; Run 1, Run 2
# NEK9 = NEK9 (Homo sapiens, UniProt Q8TD19); assay: biochemical; settings: read-out: % enzyme activity, 1 μM; Run 1, Run 2
# NIM1 = NIM1 (Homo sapiens, UniProt Q8IY84); assay: biochemical; settings: read-out: % enzyme activity, 1 μM; Run 1, Run 2
# ERBB2/HER2 = ERBB2/HER2 (Homo sapiens, UniProt P04626); settings: 1 μM; Run 1, Run 2
structure (smiles),measurement,setting,value
"COc1cc(-c2cncc(-c3ccc(N4CCN(C(C)C)CC4)cc3)c2C)cc(F)c1C(N)=O [Compound 26b, 2-Fluoro-4-(5-(4-(4-isopropylpiperazin-1-yl)phenyl)-4-methylpyridin-3-yl)-6-methoxybenzamide]",% enzyme activity,LCK,96.67%
same,remaining activity at 1 µM,JAK2,95.8%
same,% enzyme activity,PKCg,97.90%
same,% enzyme activity,DCAMKL2,69.99%
same,% enzyme activity,TYK2,100.78%
same,% enzyme activity,FRK/PTK5 [1],99.17%
same,% enzyme activity,ERN1/IRE1,96.56%
same,remaining activity at 1 µM,IGF1R,101%
same,% enzyme activity,CHK2,95.41%
same,% enzyme activity,PKCmu/PRKD1,90.68%
same,remaining activity at 1 µM,P38d/MAPK13,104%
same,remaining activity at 1 µM,CDK2/Cyclin A1,112%
same,% enzyme activity,NEK5,96.39%
same,remaining activity at 1 µM,ERN2/IRE2,104%
same,remaining activity at 1 µM,GCK/MAP4K2 [2],68.2%
same,% enzyme activity,GSK3a,100.51%
same,remaining activity at 1 µM,CDK1/cyclin A,84.5%
same,% enzyme activity,PKG1b,98.95%
same,remaining activity at 1 µM,CDK1/cyclin E,100%
same,remaining activity at 1 µM,FRK/PTK5 [3],100%
same,remaining activity at 1 µM,EPHA8,102%
same,remaining activity at 1 µM,EPHB4,91%
same,remaining activity at 1 µM,SIK1,88.5%
same,% enzyme activity,MEK1,102.97%
same,% enzyme activity,NEK3,95.23%
same,% enzyme activity,P38a/MAPK14,99.05%
same,remaining activity at 1 µM,EPHB2,96.2%
same,% enzyme activity,DAPK2 [4],103.70%
same,% enzyme activity,GCK/MAP4K2 [5],67.48%
same,% enzyme activity,KDR/VEGFR2,95.43%
same,remaining activity at 1 µM,PKCtheta,103%
same,% enzyme activity,TRKB,105.99%
same,remaining activity at 1 µM,STK33,97.3%
same,remaining activity at 1 µM,RIPK3,112%
same,remaining activity at 1 µM,MARK3,93%
same,remaining activity at 1 µM,DAPK2 [6],104%
same,remaining activity at 1 µM,PKMYT1,125%
same,% enzyme activity,MSK2/RPS6KA4,95.45%
same,remaining activity at 1 µM,FGR,93.4%
same,remaining activity at 1 µM,MLCK2/MYLK2,82.3%
same,remaining activity at 1 µM,NEK9,82.7%
same,remaining activity at 1 µM,NIM1,94.5%
same,% enzyme activity,ERBB2/HER2,85.10%
